{"source": "PubChem BioAssay AID504764 (Drosophila RNAi Screening Center, 2011)", "purpose": "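Genes whose knock-down alters Notch-dependent transcription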 (primary screen)", "system": "Drosophila Kc167 cells", "reagents": "long dsRNA against Drosophila genes", "time to read-out": "about 5 days (4 days dsRNA, then 24 h after transfection)", "challenge": "transfection of constitutively active membrane-tethered Notch lacking the extracellular domain, read 24 h later", "measurement": "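Firefly luciferase from an E(spl)m3 reporter with active Notch, plus control-promoter and uninduced reporter wells for normalisation; unnormalised counts, duplicate wells a and b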", "scale": "induced reporter light, run 1, well a and induced reporter light, run 1, well b: higher = more light from the Notch target reporter with active Notch; control promoter light, run 1, well a and control promoter light, run 1, well b: higher = more light from the viral control promoter (cell number, transfection, viability); uninduced reporter light, run 1, well a: higher = more light from the Notch target reporter without active Notch", "active means": "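Wells with low control signal or poorly matching duplicates excluded; duplicates averaged; per source plate, z beyond ±2 for induced/control log2 ratio or beyond ±1.8 for induced/uninduced marks a hit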", "calls": "active = modifier hit (raised or lowered Notch signal); inactive = not a hit", "note": "The screen tested about 22,000 reagents; this is an unselected part of those with a known target gene and a result. Of all reagents, 403 (1.9%) were called active. 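Unnormalised raw counts per well; ratio z-scores behind the hit calls and whether each hit raises or lowers signal are not deposited.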 Reagents against one gene are numbered here. No sequences are given here. Not stated in the record: the amount of reagent."}
The opening 2 records as a preview:
{"Gene": "Jabba (GeneID 37164)", "dsRNA no.": 1, "induced reporter light, run 1, well a": 1.09e5, "induced reporter light, run 1, well b": 1.05e5, "control promoter light, run 1, well a": 1.96e5, "control promoter light, run 1, well b": 1.88e5, "uninduced reporter light, run 1, well a": 9190, "Call": "inactive"}
{"Gene": "mgr (GeneID 41365)", "dsRNA no.": 1, "induced reporter light, run 1, well a": 75590, "induced reporter light, run 1, well b": 55055, "control promoter light, run 1, well a": 52740, "control promoter light, run 1, well b": 43220, "uninduced reporter light, run 1, well a": 4715, "Call": "inactive"}

The listing, repeating the preview:
{"Gene": "Jabba (GeneID 37164)", "dsRNA no.": 1, "induced reporter light, run 1, well a": 1.09e5, "induced reporter light, run 1, well b": 1.05e5, "control promoter light, run 1, well a": 1.96e5, "control promoter light, run 1, well b": 1.88e5, "uninduced reporter light, run 1, well a": 9190, "Call": "inactive"}
{"Gene": "mgr (GeneID 41365)", "dsRNA no.": 1, "induced reporter light, run 1, well a": 75590, "induced reporter light, run 1, well b": 55055, "control promoter light, run 1, well a": 52740, "control promoter light, run 1, well b": 43220, "uninduced reporter light, run 1, well a": 4715, "Call": "inactive"}
{"Gene": "CG3184 (GeneID 31608)", "dsRNA no.": 1, "induced reporter light, run 1, well a": 1.62e5, "induced reporter light, run 1, well b": 1.66e5, "control promoter light, run 1, well a": 2.23e5, "control promoter light, run 1, well b": 2.07e5, "uninduced reporter light, run 1, well a": 14190, "Call": "inactive"}
{"Gene": "CG17597 (GeneID 35140)", "dsRNA no.": 1, "induced reporter light, run 1, well a": 2.48e5, "induced reporter light, run 1, well b": 2.07e5, "control promoter light, run 1, well a": 2.18e5, "control promoter light, run 1, well b": 2.26e5, "uninduced reporter light, run 1, well a": 18395, "Call": "inactive"}
{"Gene": "Mdh2 (retired record) (GeneID 5656949)", "dsRNA no.": 1, "induced reporter light, run 1, well a": 2.05e5, "induced reporter light, run 1, well b": 1.91e5, "control promoter light, run 1, well a": 2.32e5, "control promoter light, run 1, well b": 2.09e5, "uninduced reporter light, run 1, well a": 12082, "Call": "inactive"}
{"Gene": "tsu (GeneID 35924)", "dsRNA no.": 1, "induced reporter light, run 1, well a": 2.07e5, "induced reporter light, run 1, well b": 1.75e5, "control promoter light, run 1, well a": 1.95e5, "control promoter light, run 1, well b": 1.88e5, "uninduced reporter light, run 1, well a": 13445, "Call": "inactive"}
{"Gene": "CG17169 (GeneID 3354995)", "dsRNA no.": 1, "induced reporter light, run 1, well a": 68180, "induced reporter light, run 1, well b": 69075, "control promoter light, run 1, well a": 87770, "control promoter light, run 1, well b": 1.02e5, "uninduced reporter light, run 1, well a": 7650, "Call": "inactive"}
{"Gene": "CG1360 (GeneID 35695)", "dsRNA no.": 1, "induced reporter light, run 1, well a": 1.66e5, "induced reporter light, run 1, well b": 1.61e5, "control promoter light, run 1, well a": 1.96e5, "control promoter light, run 1, well b": 1.94e5, "uninduced reporter light, run 1, well a": 16675, "Call": "inactive"}
{"Gene": "Frl (GeneID 39561)", "dsRNA no.": 1, "induced reporter light, run 1, well a": 1.58e5, "induced reporter light, run 1, well b": 1.37e5, "control promoter light, run 1, well a": 2.47e5, "control promoter light, run 1, well b": 2.42e5, "uninduced reporter light, run 1, well a": 18465, "Call": "inactive"}
{"Gene": "Frl (GeneID 39561)", "dsRNA no.": 2, "induced reporter light, run 1, well a": 1.52e5, "induced reporter light, run 1, well b": 1.51e5, "control promoter light, run 1, well a": 2.76e5, "control promoter light, run 1, well b": 2.66e5, "uninduced reporter light, run 1, well a": 4455, "Call": "inactive"}
{"Gene": "Frl (GeneID 39561)", "dsRNA no.": 3, "induced reporter light, run 1, well a": 2.53e5, "induced reporter light, run 1, well b": 2.25e5, "control promoter light, run 1, well a": 2.85e5, "control promoter light, run 1, well b": 2.71e5, "uninduced reporter light, run 1, well a": 12005, "Call": "inactive"}
{"Gene": "Rpt3 (GeneID 32047)", "dsRNA no.": 1, "induced reporter light, run 1, well a": 1.01e5, "induced reporter light, run 1, well b": 92845, "control promoter light, run 1, well a": 1.67e5, "control promoter light, run 1, well b": 1.34e5, "uninduced reporter light, run 1, well a": 7020, "Call": "inactive"}
{"Gene": "mRpL21 (GeneID 40091)", "dsRNA no.": 1, "induced reporter light, run 1, well a": 86080, "induced reporter light, run 1, well b": 87865, "control promoter light, run 1, well a": 97810, "control promoter light, run 1, well b": 59615, "uninduced reporter light, run 1, well a": 5410, "Call": "inactive"}
{"Gene": "CG15543 (GeneID 43647)", "dsRNA no.": 1, "induced reporter light, run 1, well a": 1.36e5, "induced reporter light, run 1, well b": 1.01e5, "control promoter light, run 1, well a": 1.98e5, "control promoter light, run 1, well b": 1.54e5, "uninduced reporter light, run 1, well a": 12330, "Call": "inactive"}
{"Gene": "CG13894 (GeneID 38086)", "dsRNA no.": 1, "induced reporter light, run 1, well a": 12610, "induced reporter light, run 1, well b": 8710, "control promoter light, run 1, well a": 14050, "control promoter light, run 1, well b": 13600, "uninduced reporter light, run 1, well a": 3930, "Call": "inactive"}
{"Gene": "Bet1 (GeneID 40094)", "dsRNA no.": 1, "induced reporter light, run 1, well a": 1.05e5, "induced reporter light, run 1, well b": 92920, "control promoter light, run 1, well a": 1.03e5, "control promoter light, run 1, well b": 80620, "uninduced reporter light, run 1, well a": 5665, "Call": "inactive"}
{"Gene": "Or46a (GeneID 2768728)", "dsRNA no.": 1, "induced reporter light, run 1, well a": 2.46e5, "induced reporter light, run 1, well b": 2.06e5, "control promoter light, run 1, well a": 2.71e5, "control promoter light, run 1, well b": 2.64e5, "uninduced reporter light, run 1, well a": 20325, "Call": "inactive"}
{"Gene": "Or46a (GeneID 2768728)", "dsRNA no.": 2, "induced reporter light, run 1, well a": 1.90e5, "induced reporter light, run 1, well b": 1.93e5, "control promoter light, run 1, well a": 2.49e5, "control promoter light, run 1, well b": 2.58e5, "uninduced reporter light, run 1, well a": 16445, "Call": "inactive"}
